According to patent US20060189679A1, “C10 cyclopropyl ester substituted taxane compositions” (priority 2005, published 2006):
For at least one compound, name, drawing or mass did not settle the structure.

Columns and labels:
[1] = system: DLD-1 multi-drug resistant human colon carcinoma xenografts; settings: DLD e07
[2] = system: A549 human lung cancer cells; assay: Microtubule stabilization in living tumor cells (anti-α tubulin fluorescence microscopy); assay type: cell-based; settings: 100 nM, 24 hours
[3] = system: SW480 human colon carcinoma xenografts; settings: SW480 e11; oral Q4Dx4; 90, 70 and 50 mg/kg

## CC(=O)O[C@@]12CO[C@@H]1C[C@H](O)[C@@]1(C)C(=O)[C@H](OC(=O)C3CC3)C3=C(C)[C@@H](OC(=O)[C@H](O)[C@@H](NC(=O)OCC(C)C)c4ccco4)C[C@@](O)([C@@H](OC(=O)c4ccccc4)C12)C3(C)C (some centres unmarked) [Compound 3102]
[1]; 35 mg/kg intravenously Q4Dx4
  controlling tumor growth: similarly effective in controlling tumor growth
[1]; oral Q4Dx4, 80, 70 and 50 mg/kg
  reducing tumor growth: highly effective at all doses tested
[2]
  effect on microtubules: formation of “bundles” of microtubules
  effect on nuclei (apoptosis): fragmentation which is indicative of apoptosis
[3]
  reducing tumor growth: effective at all doses tested
